These results are taken from publication doi:10.1101/2019.12.18.881771 (bioRxiv, 2019).

The assay concerns the target T1, GIT1 C-terminal fragment (aa 371-end) (mouse) (UniProt Q68FF6).
T1 sequence: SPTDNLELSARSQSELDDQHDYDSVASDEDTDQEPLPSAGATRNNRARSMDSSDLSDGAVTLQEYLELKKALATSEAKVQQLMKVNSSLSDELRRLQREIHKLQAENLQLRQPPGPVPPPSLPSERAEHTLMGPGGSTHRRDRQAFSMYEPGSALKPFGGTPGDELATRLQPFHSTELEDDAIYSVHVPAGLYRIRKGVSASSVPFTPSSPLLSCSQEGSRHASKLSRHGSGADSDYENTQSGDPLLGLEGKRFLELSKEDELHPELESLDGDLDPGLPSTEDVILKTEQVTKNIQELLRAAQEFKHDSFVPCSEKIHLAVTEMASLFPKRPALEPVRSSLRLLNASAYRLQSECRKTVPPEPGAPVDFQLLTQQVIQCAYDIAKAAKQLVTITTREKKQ
Nature of the assay: pull-down.

These are yes or no findings as the source states them, for the method shown. In cells and extracts the contact can be indirect. Some entries that bind do so weakly or less than the wild type. Tags and fused reporters may be left off the sequences shown.

B1: GIT1 N-terminal fragment (aa 1-371) of the GST pull-down (domain or fragment, UniProt Q68FF6 1-371)
chain: MSRKGPRAEVCADCSAPDPGWASISRGVLVCDECCSVHRSLGRHISIVKHLRHSAWPPTLLQMVHTLASNGANSIWEHSLLDPAQVQSGRRKANPQDKVHPIKSEFIRAKYQMLAFVHKLPCRDDDGVTAKDLSKQLHSSVRTGNLETCLRLLSLGAQANFFHPEKGTTPLHVAAKAGQTLQAELLVVYGADPGSPDVNGRTPIDYARQAGHHELAERLVECQYELTDRLAFYLCGRKPDHKNGHYIIPQMADRSRQKCMSQSLDLSELAKAAKKKLQALSNRLFEELAMDVYDEVDRRENDAVWLATQNHSTLVTERSAVPFLPVNPEYSATRNQGRQKLARFNAREFATLIIDILSEAKRRQQGKSLSS
As for B1, the binding entry is listed as “binds”.
